Binding data for 16 molecules are collected here from US20250051443A1 (NATIONAL RESEARCH COUNCIL OF CANADA, published 2025).

By UniProt entry, the sequences of proteins in these tests, tags left out. Where a name states a change or a piece, a line headed by the entry shows the natural chain unless it says otherwise.
UniProt Q95LI5: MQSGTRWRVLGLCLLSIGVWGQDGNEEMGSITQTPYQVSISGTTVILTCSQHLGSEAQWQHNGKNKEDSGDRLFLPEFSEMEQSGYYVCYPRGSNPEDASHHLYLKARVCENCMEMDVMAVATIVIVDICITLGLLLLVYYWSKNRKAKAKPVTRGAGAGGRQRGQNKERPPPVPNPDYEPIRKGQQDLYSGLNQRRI
UniProt P07766: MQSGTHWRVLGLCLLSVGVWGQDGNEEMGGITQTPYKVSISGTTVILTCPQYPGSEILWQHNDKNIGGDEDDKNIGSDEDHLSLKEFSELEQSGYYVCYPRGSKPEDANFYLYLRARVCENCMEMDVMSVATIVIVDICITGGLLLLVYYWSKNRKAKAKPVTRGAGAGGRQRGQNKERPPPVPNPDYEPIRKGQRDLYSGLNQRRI

The target of one assay is T1, Cynomolgus CD3 (Cynomolgus, UniProt Q95LI5 22-198; Q95LI7 23-181; Q95LI8 22-171).
T1 construct: whole, on cells; also called CD3 on Cynomolgus PBMCs; CD3 on HSC-F Cynomolgus T cell line
Description: flow cytometry titration on cynomolgus PBMCs or HSC-F T cell line. (A flow cytometer gives signals particle by particle.)

The target of assay [1] is T2, human CD3 (human, UniProt P07766 23-207; P09693 23-182; P04234 22-171). The assay can be described thus: flow cytometry, hybridoma supernatant on Jurkat vs CD3-negative J.RT3-T3.5.
For assay [2], the target named is T2, human CD3. Description: flow cytometry dose-response on Jurkat cells.

Residue numbers refer to the chain shown, from its start. No constants are given. Whether binding was seen depends on the method and setting. Some binding calls cover weakened binding; strength is not graded here.

B1: F282-2D5 (antibody, V domains shown)
VH: QVQLQQPGTELVKPGASVKLSCKASGYTFTSYWMHWVKQRPGQGLEWIGNINPSNGGTNYNENFKTKATLTVDKSSSTAYMQLSSLTSEDSAVYYCARDRSGQYYFDYWGQGTTLTVSS
VL: DIVMSQSPSSLAVSAGEKVTMSCKSSQSLLNSRTRKNYLAWYQQKPGQSPKLLIYWASTRESGVPDRFTGSGSGTDFTLTISSVQAEDLAVYYCIQSYHLRTFGGGTILEIK
notes: also called F282-2D5-2
Take B1: the binding entry with Cynomolgus CD3, in the assay with human CD3 [1] and with human CD3 [2] was “binds” throughout.

B2: F332-10B6 (antibody, mouse IgG2a, V domains shown)
VH: QVQLQQPGAELGKPGTSVNLSCKASGYTFTDYWIHWVKQRPGQGLEWIGNINPNSGDTNYNENFKTKATLTVDRSSSTAYMQLSSLTSEDSAVYYCTRDISGQYYFDFWGQGTTLTVSS
VL: B1 VL with H99N, I108K
notes: also called F332-10B6-2; F332-12B5-1
As for B2, in the assay with human CD3 [2], the binding entry was “binds”.

B3: F332-7E3 (antibody, mouse IgG2a, V domains shown)
VH: QVQLQQPGAELGKPGTSVKLSCKASGYTFTSYWIHWVKQRPGQGLEWIGNINPNSGSINYNEKFKSKATLTVDKSSSTAYMQLSTLTSEDFAVYYCTRDTSGQYYFDYWGQGTTLTVSS
VL: B1 VL with I95K, I108K
notes: also called F332-7E3-2
Turning to B3, the binding entry with Cynomolgus CD3 and with human CD3 [2] was “binds” in each case.

B4: F332-13B4 (antibody, mouse IgG2a, V domains shown)
VH: QVQLQQSGPELVKPGASVKISCKASGYSFTNSYVHWVKQTPGQGLEWIGWIYPGSTNIKYNEKFKGKATLTADTSSSTVYMQLSSLTSEDSAVYFCARDGSYFFDYWGQGTTLTVSS
VL: B1 VL with S22T, I95K, H99I, I108K
notes: also called F332-13B4-2
As for B4, the binding entry with Cynomolgus CD3 and with human CD3 [2] was “binds” each time.

B5: F332-5D4 (antibody, mouse IgG2b, V domains shown)
VH: B3 VH with I34M, S55G, S57D, I58S, K74M, F91S, T100I, Y108F, T114S, S118F
VL: B1 VL with V3L, K18Q, Y55F, E61K, D76Y, S82N, A86T, I95T, H99S, I108K
notes: also called F332-5D4-2; F332-5D4 (5F8)
Take B5: the binding result with Cynomolgus CD3 and with human CD3 [2] was “binds” throughout.

B6: F332-7C5 (antibody, mouse IgG2a, V domains shown)
VH: QVQLQQPGAELGKPGTSVKLSCKASGYTFTSYWMHWVKQRPGQGLEWIGNINPSSGITNYNERFKNKATLTVDKSSTTAYMQLSILTSEDSAVYYCSRDISGQYYFNFWGQGTTLTVSS
VL: B1 VL with S71T, I95K, H99N, I108K
notes: also called F332-7C5-2; F332-7C5 (5E12, 10A8)
Turning to B6, the binding entry with Cynomolgus CD3, with human CD3 [1] and with human CD3 [2] was “binds” in each case.

B7: F332-7C9 (antibody, mouse IgG2a, V domains shown)
VH: QVQLQQSGPELVKPGASVRISCKASGYTFTSHYLHWVKQRPGQGFEWIGWIYPGDGNTRYNEKFKDRATLTADKSSSTAYLHLSSLTSEDSAVYFCARDAGYYFDYWGQGTTLAVSS
VL: B1 VL with P50L, L52V, I95K, H99S, I108K
notes: also called F332-7C9-2; F332-7C9 (5C7, 7D10)
For B7, the binding entry with Cynomolgus CD3 and in the assay with human CD3 [2] was “binds” each time.

B8: F332-3E9 (antibody, mouse IgG2a, V domains shown)
VH: B3 VH with V37L, S55G, Y60C, K65T, S66T, V72I
VL: B1 VL with V3M, I95T, I108K
notes: also called F332-3E9-2; F332-3E9 (12G4)
Regarding B8, the binding entry with Cynomolgus CD3 and in the assay with human CD3 [2] was “binds” each time.

B9: F332-1C9 (antibody, mouse IgG2a, V domains shown)
VH: B3 VH with K19N, I34M, E46D, S57T, I58T, F91S, T100I, T114S
VL: B1 VL with T80I, I95K, H99S, I108K
notes: Sister clones 1A10, 5H8, 8B11 share the same entries; also called F332-1C9-2; F332-1C9 (1A10, 5H8, 8B11)
Consider B9, for which the binding result with Cynomolgus CD3 and with human CD3 [2] was “binds” in each case.

B10: F332-1E2 (antibody, mouse IgG2a, V domains shown)
VH: B3 VH with I48V, S66N
VL: B1 VL with K18R, I108K
notes: Sister clone 8C5 shares the same entries; also called F332-1E2-2; F332-1E2 (8C5)
Consider B10, for which the binding entry with Cynomolgus CD3, in the assay with human CD3 [1] and with human CD3 [2] was “binds” each time.

B11: F332-6D7 (antibody, mouse IgG2a, V domains shown)
VH: B3 VH with K19N, I34M, E46D, S57T, I58T, F91S, T100I, T114S
VL: B1 VL with I95K, H99S, T107S, I108K
notes: also called F332-6D7-2; F332-6D7 (7G4)
For B11, the binding result with Cynomolgus CD3 and in the assay with human CD3 [2] was “binds” throughout.

B12: F332-7B7 (antibody, mouse IgG2a, V domains shown)
VH: B3 VH with A9T, S31N, I34M, I58T, E62Q, V72L, L83F, F91S, T100S
VL: B1 VL with Y98F, I108K
notes: also called F332-7B7-2
Turning to B12, the binding result in the assay with Cynomolgus CD3 and with human CD3 [2] was “binds” in each case.

B13: F332-12F6 (antibody, mouse IgG2a, V domains shown)
VH: B3 VH with I58T, F91S, T100I
VL: B1 VL with N37S, H99N, I108K
notes: also called F332-12F6-2
Regarding B13, the binding entry with Cynomolgus CD3, with human CD3 [1] and with human CD3 [2] was “binds” each time.

B14: F332-8F7 (antibody, mouse IgG2a, V domains shown)
VH: B3 VH with I58T, S66N, Y80S, F91S, T100I
VL: B1 VL with A15T, E17G, K18E, H99S, I108K, E110G
notes: also called F332-8F7-3
Regarding B14, the binding result with Cynomolgus CD3 and with human CD3 [2] was “binds” each time.

B15: F332-5F2 (antibody, mouse IgG2b, V domains shown)
VH: B3 VH with I34M, S55G, S57D, I58S, F91S, T100I, Y108F, T114S, S118F
VL: B1 VL with V3L, K18Q, Y55F, E61K, D76Y, I95T, H99N, I108K
notes: also called F332-5F2-2; F332-5F2 (6G8, 13A3)
Turning to B15, the binding entry with Cynomolgus CD3 and in the assay with human CD3 [2] was “binds” throughout.

B16: F332-4D6 (antibody, mouse IgG2a, V domains shown)
VH: B3 VH with P7S, I58T, S66R, V72A
VL: B1 VL with L52V, I95K, I108K
notes: also called F332-4D6-2; F322-4D6
In the case of B16, the binding entry with Cynomolgus CD3 and in the assay with human CD3 [2] was “binds” in each case.
